Laboratory results as given in article doi:10.1101/2021.11.05.21265852.
These are yes or no findings as the source states them, for the method shown. In cells and extracts the contact can be indirect. Some entries that bind do so weakly or less than the wild type.

Protein sequences, listed by entry. Tags and fused reporters are not part of them. Lines headed by an entry give the natural chain unless they say otherwise; changes in a name come on top.
UniProt P50461: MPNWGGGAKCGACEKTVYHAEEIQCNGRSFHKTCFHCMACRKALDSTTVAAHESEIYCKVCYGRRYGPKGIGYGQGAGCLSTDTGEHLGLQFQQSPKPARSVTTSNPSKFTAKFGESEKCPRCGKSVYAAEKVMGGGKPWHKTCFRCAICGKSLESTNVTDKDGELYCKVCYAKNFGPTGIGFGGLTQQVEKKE
UniProt P35609: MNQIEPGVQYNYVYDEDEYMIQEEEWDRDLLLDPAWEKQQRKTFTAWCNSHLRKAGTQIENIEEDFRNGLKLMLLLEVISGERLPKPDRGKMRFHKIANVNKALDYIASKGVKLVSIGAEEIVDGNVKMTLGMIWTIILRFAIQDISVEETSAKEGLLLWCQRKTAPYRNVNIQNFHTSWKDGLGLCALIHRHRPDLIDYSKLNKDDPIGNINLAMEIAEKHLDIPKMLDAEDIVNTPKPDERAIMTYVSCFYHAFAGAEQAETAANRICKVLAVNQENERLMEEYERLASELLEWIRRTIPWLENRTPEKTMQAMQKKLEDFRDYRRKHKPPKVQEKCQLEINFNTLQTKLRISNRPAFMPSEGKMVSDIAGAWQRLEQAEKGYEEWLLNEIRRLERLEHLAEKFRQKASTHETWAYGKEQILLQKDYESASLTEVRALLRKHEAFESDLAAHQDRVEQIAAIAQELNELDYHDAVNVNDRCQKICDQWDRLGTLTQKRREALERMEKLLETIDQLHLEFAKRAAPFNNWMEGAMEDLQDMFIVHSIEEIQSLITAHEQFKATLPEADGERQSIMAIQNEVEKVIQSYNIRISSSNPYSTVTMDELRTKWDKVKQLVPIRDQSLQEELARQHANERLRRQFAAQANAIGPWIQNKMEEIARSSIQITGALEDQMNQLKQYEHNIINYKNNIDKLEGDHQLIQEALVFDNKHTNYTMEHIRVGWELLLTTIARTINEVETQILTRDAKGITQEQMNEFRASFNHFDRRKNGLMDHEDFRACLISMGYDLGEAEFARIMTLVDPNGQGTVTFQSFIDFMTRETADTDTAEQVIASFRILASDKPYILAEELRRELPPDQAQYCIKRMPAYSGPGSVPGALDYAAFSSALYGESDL

What was measured:
Experiment in all cases: pull-down
[1] = target: GST-CSRP3-G78V fusion protein (human) (UniProt P50461)
[2] = target: GST-CSRP3-W140C fusion protein (human) (UniProt P50461)
[3] = target: GST-CSRP3-WT fusion protein (human) (UniProt P50461)

Measured: binding

ACTN2 (c-myc tagged) (from UniProt P35609 1-894)
binds: [1] | [2] | [3]
